No constants are given. Whether binding was seen depends on the method and setting. Binding seen in cells or lysates may run through a third protein. Some entries that bind do so weakly or less than the wild type. Sequences can lack the tags named with a protein.
T1: RLP32-GFP (Arabidopsis leucine-rich repeat receptor-like protein 32 with C-terminal GFP) (Arabidopsis thaliana) (UniProt Q9M9X0)
T1 sequence: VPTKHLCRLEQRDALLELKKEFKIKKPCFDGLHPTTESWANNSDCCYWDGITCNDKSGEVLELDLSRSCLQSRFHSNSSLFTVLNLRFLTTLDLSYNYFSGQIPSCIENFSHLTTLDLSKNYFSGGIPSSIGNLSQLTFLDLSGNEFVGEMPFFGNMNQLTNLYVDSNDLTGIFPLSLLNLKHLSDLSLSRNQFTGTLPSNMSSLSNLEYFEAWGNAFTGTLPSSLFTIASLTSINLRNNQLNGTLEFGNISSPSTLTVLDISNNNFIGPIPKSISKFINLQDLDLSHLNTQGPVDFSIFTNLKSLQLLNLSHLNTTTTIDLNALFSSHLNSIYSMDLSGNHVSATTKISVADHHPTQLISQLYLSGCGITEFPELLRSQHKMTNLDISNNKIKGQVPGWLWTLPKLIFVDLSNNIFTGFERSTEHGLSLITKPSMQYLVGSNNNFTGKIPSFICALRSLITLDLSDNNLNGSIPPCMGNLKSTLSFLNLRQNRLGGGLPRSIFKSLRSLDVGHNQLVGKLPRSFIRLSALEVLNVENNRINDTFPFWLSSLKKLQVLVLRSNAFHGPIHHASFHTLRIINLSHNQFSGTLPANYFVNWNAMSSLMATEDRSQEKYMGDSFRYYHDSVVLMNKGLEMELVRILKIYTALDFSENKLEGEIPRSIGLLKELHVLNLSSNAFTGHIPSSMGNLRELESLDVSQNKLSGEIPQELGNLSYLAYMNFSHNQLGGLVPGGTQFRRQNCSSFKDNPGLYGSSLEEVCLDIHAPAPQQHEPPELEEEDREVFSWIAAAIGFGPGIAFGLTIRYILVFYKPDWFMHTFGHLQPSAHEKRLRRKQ


How the values were obtained:
[1] = molecular target: T1, RLP32-GFP (Arabidopsis leucine-rich repeat receptor-like protein 32 with C-terminal GFP) (Arabidopsis thaliana); assay: condition: only with a 1000-fold molar excess of native IF1 (30 uM); cross-linking; in vivo cross-linking: N. benthamiana leaves expressing the GFP-tagged receptor infiltrated with 30 nM biotinylated ligand, with or without 30 uM unlabeled competitor; after 5 min 2 mM EGS, harvest after 15 min; receptor precipitated with GFP-Trap beads; bound ligand detected on blots with streptavidin-alkaline phosphatase; only the binder purified
[2] = molecular target: T1, RLP32-GFP (Arabidopsis leucine-rich repeat receptor-like protein 32 with C-terminal GFP) (Arabidopsis thaliana); assay: cross-linking; in vivo cross-linking: N. benthamiana leaves expressing the GFP-tagged receptor infiltrated with 30 nM biotinylated ligand, with or without 30 uM unlabeled competitor; after 5 min 2 mM EGS, harvest after 15 min; receptor precipitated with GFP-Trap beads; bound ligand detected on blots with streptavidin-alkaline phosphatase; only the binder purified

binding [1] | binding [2] | Binder
no binding | binds | biotinylated IF1 (translation initiation factor 1) (ligand, UniProt P69222 1-72, biotin (position not given)) MAKEDNIEMQGTVLETLPNTMFRVELENGHVVTAHISGKMRKNYIRILTGDKVTVELTPYDLSKGRIVFRSR
 | binds | translation initiation factor 1 (IF1), unlabeled, chemically synthesized (ligand, UniProt P69222 1-72) MAKEDNIEMQGTVLETLPNTMFRVELENGHVVTAHISGKMRKNYIRILTGDKVTVELTPYDLSKGRIVFRSR

— article PMC8917236
